Assay results published in patent US20170189504A1, “NOVEL PEPTIDES AND COMBINATION OF PEPTIDES FOR USE IN IMMUNOTHERAPY AGAINST VARIOUS CANCERS” (immatics biotechnologies GmbH, priority 2015, published 2017).

Experiments:
HLA-A*02 = experiment: Identification and relative LC-MS quantitation of HLA-A*02-presented tumor-associated peptides on tissue samples (presentation profiles, Tables 13A, 13B, 15, FIG. 1); parameters: species or system human; key to Presentation score NHL / Presentation score CLL / Presentation score BRCA / Presentation score AML / Presentation score GB / Presentation score NSCLC / Presentation score GBC_CCC / Presentation score UEC / Presentation score MEL / Presentation score OSCAR / Presentation score GC / Presentation score UBC / Presentation score OC / Presentation score RCC / Presentation score CRC / Presentation score PCA / Presentation score HCC / Presentation score PC / Presentation score SCLC: specifically presented on tumors (++++); very highly over-presented on tumors compared to a panel of normal tissues (+++); highly over-presented on tumors compared to a panel of normal tissues (++); over-presented on tumors compared to a panel of normal tissues (+); conditions: for Presentation score NHL: non-Hodgkin lymphoma (N = 18) vs panel of normal tissues (N = 262); for Presentation score NSCLC: non-small cell lung cancer (N = 90) vs panel of normal tissues (N = 262); for Presentation score OC: ovarian cancer (N = 20) vs panel of normal tissues (N = 262); for Peptide Presentation on cancer entities: HLA-A*02-binding tumor-associated peptides
source genes (mRNA) [1] = experiment: Gene and exon expression of source genes, TCGA tumor samples compared with normal tissue samples (Lonsdale, 2013) (Table 17); parameters: species or system human; conditions: for Target coverage: over-expression category of source gene, LAML: Acute Myeloid Leukemia (N = 173); for Target coverage: over-expression category of source gene, BRCA: Breast cancer (N = 1104), cutoff more than 2-fold above highest 75% percentile of high and medium risk normal tissue samples; for Target coverage: over-expression category of source gene, KIRC: Clear cell kidney carcinoma (N = 534); for Target coverage: over-expression category of source gene, READ: Colon and rectal adenocarcinoma (N = 167); for Target coverage: over-expression category of source gene, COAD: Colon and rectal adenocarcinoma (N = 462); for Target coverage: over-expression category of source gene, ESCA: Esophageal cancer (N = 185); for Target coverage: over-expression category of source gene, KICH: Kidney chromophobe (N = 66); for Target coverage: over-expression category of source gene, LGG: Lower grade glioma (N = 534); for Target coverage: over-expression category of source gene, LUAD: Lung adenocarcinoma (N = 517); for Target coverage: over-expression category of source gene, LUSC: Lung squamous cell carcinoma (N = 503); for Target coverage: over-expression category of source gene, DLBC: Lymphoid neoplasm diffuse large B-cell lymphoma (N = 48); for Target coverage: over-expression category of source gene, OV: Ovarian serous cystadenocarcinoma (N = 309); for Target coverage: over-expression category of source gene, KIRP: Papillary kidney carcinoma (N = 291); for Target coverage: over-expression category of source gene, PRAD: Prostate adenocarcinoma (N = 498); for Target coverage: over-expression category of source gene, SKCM: Skin cutaneous melanoma (N = 473); for Target coverage: over-expression category of source gene, STAD: Stomach adenocarcinoma (N = 415); for Target coverage: over-expression category of source gene, UCEC: Uterine corpus endometrial carcinoma (N = 546)
source genes (mRNA) [2] = experiment: Expression profiling of source genes by in-house RNASeq of tumor and normal tissues (Table 18, FIG. 2); parameters: species or system human; key: very highly over-expressed in tumors compared to a panel of normal tissues (+++); highly over-expressed in tumors compared to a panel of normal tissues (++); over-expressed in tumors compared to a panel of normal tissues (+); conditions: source gene of peptide; for Expression score NHL: non-Hodgkin lymphoma (N = 10) vs panel of normal tissues
[3] = Table 13A, cancer entities on which the peptide was found presented
[4] = Table 13B, presentation on additional cancer entities
[5] = cutoff more than 2-fold above highest 75% percentile of normal tissue samples

Substance	Presentation score NHL (HLA-A*02; HLA-A*02 peptides)	Presentation score NSCLC (HLA-A*02; HLA-A*02 peptides)	Presentation score OC (HLA-A*02; HLA-A*02 peptides)	Peptide Presentation on cancer entities (HLA-A*02; [3])	Peptide Presentation on cancer entities (HLA-A*02; [4])	Target coverage: over-expression category of source gene, LAML (source genes (mRNA) [1]; [5])	Target coverage: over-expression category of source gene, BRCA (source genes (mRNA) [1])	Target coverage: over-expression category of source gene, KIRC (source genes (mRNA) [1]; [5])	Target coverage: over-expression category of source gene, READ (source genes (mRNA) [1]; [5])	Target coverage: over-expression category of source gene, COAD (source genes (mRNA) [1]; [5])	Target coverage: over-expression category of source gene, ESCA (source genes (mRNA) [1]; [5])	Target coverage: over-expression category of source gene, KICH (source genes (mRNA) [1]; [5])	Target coverage: over-expression category of source gene, LGG (source genes (mRNA) [1]; [5])	Target coverage: over-expression category of source gene, LUAD (source genes (mRNA) [1]; [5])	Target coverage: over-expression category of source gene, LUSC (source genes (mRNA) [1]; [5])	Target coverage: over-expression category of source gene, DLBC (source genes (mRNA) [1]; [5])	Target coverage: over-expression category of source gene, OV (source genes (mRNA) [1]; [5])	Target coverage: over-expression category of source gene, KIRP (source genes (mRNA) [1]; [5])	Target coverage: over-expression category of source gene, PRAD (source genes (mRNA) [1]; [5])	Target coverage: over-expression category of source gene, SKCM (source genes (mRNA) [1]; [5])	further results
47: peptide found in NOC4L (gene looked up) (ALLERGELFV; listed as Homo sapiens) [compound 47]	++++	++++	++++	NSCLC, CLL, OC, NHL	OSCAR, UBC, AML	B (>= 20% of tumors above the cutoff, but <50%)	B (>= 20% of tumors above the cutoff, but <50%)	C (>=5% of tumors above the cutoff, but <20%)	A (>=50% of tumors above the cutoff)	A (>=50% of tumors above the cutoff)	A (>=50% of tumors above the cutoff)	B (>= 20% of tumors above the cutoff, but <50%)	B (>= 20% of tumors above the cutoff, but <50%)	B (>= 20% of tumors above the cutoff, but <50%)	B (>= 20% of tumors above the cutoff, but <50%)	A (>=50% of tumors above the cutoff)	A (>=50% of tumors above the cutoff)	A (>=50% of tumors above the cutoff)	B (>= 20% of tumors above the cutoff, but <50%)	A (>=50% of tumors above the cutoff)	Presentation score CLL (HLA-A*02; HLA-A*02 peptides, chronic lymphocytic leukemia (N = 17) vs panel of normal tissues (N = 262)): ++++; Target coverage: over-expression category of source gene, BLCA (source genes (mRNA) [1]; Bladder urothelial carcinoma (N = 408), cutoff more than 2-fold above highest 75% percentile of normal tissue samples): A (>=50% of tumors above the cutoff); Target coverage: over-expression category of source gene, CHOL (source genes (mRNA) [1]; Cholangiocarcinoma (N = 36), cutoff more than 2-fold above highest 75% percentile of normal tissue samples): A (>=50% of tumors above the cutoff); Target coverage: over-expression category of source gene, GBM (source genes (mRNA) [1]; Glioblastoma multiforme (N = 169), cutoff more than 2-fold above highest 75% percentile of normal tissue samples): B (>= 20% of tumors above the cutoff, but <50%); Target coverage: over-expression category of source gene, LIHC (source genes (mRNA) [1]; Liver hepatocellular carcinoma (N = 374), cutoff more than 2-fold above highest 75% percentile of normal tissue samples): B (>= 20% of tumors above the cutoff, but <50%); Target coverage: over-expression category of source gene, PAAD (source genes (mRNA) [1]; Pancreatic ductal adenocarcinoma (N = 179), cutoff more than 2-fold above highest 75% percentile of normal tissue samples): B (>= 20% of tumors above the cutoff, but <50%); Target coverage: over-expression category of source gene, STAD (source genes (mRNA) [1]; [5]): A (>=50% of tumors above the cutoff); Target coverage: over-expression category of source gene, UCEC (source genes (mRNA) [1]; [5]): A (>=50% of tumors above the cutoff); Expression score OSCAR (source genes (mRNA) [2]; esophageal cancer incl. gastric-esophageal junction (N = 11) vs panel of normal tissues): +; Expression score NHL (source genes (mRNA) [2]): +; Expression score UBC (source genes (mRNA) [2]; urinary bladder cancer (N = 10) vs panel of normal tissues): +
91: peptide found in TRRAP (gene looked up) (KLFDESILI; listed as Homo sapiens) [compound 91]	+	++	+	GC, NSCLC, PCA, CLL, OSCAR, OC, SCLC, UEC, BRCA, AML, NHL	HCC, HNSCC	A (>=50% of tumors above the cutoff)	B (>= 20% of tumors above the cutoff, but <50%)	C (>=5% of tumors above the cutoff, but <20%)	C (>=5% of tumors above the cutoff, but <20%)	C (>=5% of tumors above the cutoff, but <20%)	A (>=50% of tumors above the cutoff)	C (>=5% of tumors above the cutoff, but <20%)	C (>=5% of tumors above the cutoff, but <20%)	C (>=5% of tumors above the cutoff, but <20%)	C (>=5% of tumors above the cutoff, but <20%)	C (>=5% of tumors above the cutoff, but <20%)	B (>= 20% of tumors above the cutoff, but <50%)	C (>=5% of tumors above the cutoff, but <20%)	C (>=5% of tumors above the cutoff, but <20%)	C (>=5% of tumors above the cutoff, but <20%)	Presentation score AML (HLA-A*02; HLA-A*02 peptides, acute myeloid leukemia (N = 18) vs panel of normal tissues (N = 262)): +; Target coverage: over-expression category of source gene, STAD (source genes (mRNA) [1]; [5]): A (>=50% of tumors above the cutoff); Target coverage: over-expression category of source gene, UCEC (source genes (mRNA) [1]; [5]): C (>=5% of tumors above the cutoff, but <20%); Expression score CLL (source genes (mRNA) [2]; chronic lymphocytic leukemia (N = 10) vs panel of normal tissues): +; Expression score GB (source genes (mRNA) [2]; glioblastoma (N = 24) vs panel of normal tissues): +; Expression score NHL (source genes (mRNA) [2]): +; Expression score NSCLC (source genes (mRNA) [2]; non-small cell lung cancer (N = 11) vs panel of normal tissues): +; Expression score OC (source genes (mRNA) [2]; ovarian cancer (N = 12) vs panel of normal tissues): +; Expression score SCLC (source genes (mRNA) [2]; small cell lung cancer (N = 10) vs panel of normal tissues): +

For part of these data: Expression grades refer to the transcript from which the peptide derives; gene names, where given, were looked up from the sequence.
